Results published in PubChem BioAssay AID200 (DTP/NCI, 2004).
The list is a part of this screen's results and no random one: it gathers tests that were run many times, whatever their T/C, doses with no T/C, and many T/C values between a quarter and a half above the control. Other doses and runs of a compound stand elsewhere. T/C is the treated group as % of the vehicle group. Some entries give survivors of the animals treated and no T/C: the source files T/C as zero there, which appears to mark a toxic dose or a test without result, not a measured value. Some doses without a T/C left all or most animals alive at the check, yet need not have been tolerated: survival well below the control is almost never listed, so the zero probably covers shortened survival too. Survivors were counted at the toxicity check, usually on the fifth day, unless a day is given; later deaths do not show. Schedules are NCI's codes, read here as Q, the interval in days (D) or hours (H), X, the number of doses. Marks such as (2×) stand for listed records that agree. Some entries hold several experiments; the results are listed from low to high. Some structures stand for samples that the source files as different forms (salt, stereo form or complex); doses refer to the form tested. Where survival is the endpoint, the PubChem record calls one and a half times the control and up active, and a quarter to a half above the control has no call in these data; cut-offs in other NCI protocols can differ. Some T/C values are followed by the survivors on the day toxicity was checked, most often the fifth; where none is given, no animal had died by that day.

System: B6C3F1 mice, B16 melanoma ip, median survival T/C
Assay: NCI In Vivo Anticancer Drug Screen. Data for tumor model B16 Melanoma (intraperitoneal) in B6C3F1 mice
Conditions: T/C endpoint: median survival time, higher T/C = longer survival
Procedure, shortened: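 Readout: survival or tumor size in treated mice relative to vehicle controls (T/C). Model uses transplantable tumors grown in mice.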

[1] = dose: 25.0 mg/kg/injection, schedule: Q01DX009 (ip), vehicle: saline
[2] = dose: 50.0 mg/kg/injection, schedule: Q01DX009 (ip), vehicle: saline
[3] = dose: 200.0 mg/kg/injection, schedule: Q01DX009 (ip), vehicle: saline
[4] = dose: 16.0 mg/kg/injection, schedule: Q01DX009 (ip), vehicle: water
[5] = dose: 32.0 mg/kg/injection, schedule: Q01DX009 (ip), vehicle: water
[6] = dose: 400.0 mg/kg/injection, schedule: Q01DX009 (ip), vehicle: saline with Tween-80
[7] = dose: 2.0 mg/kg/injection, schedule: Q01DX009 (ip), vehicle: water
[8] = dose: 4.0 mg/kg/injection, schedule: Q01DX009 (ip), vehicle: water
[9] = dose: 8.0 mg/kg/injection, schedule: Q01DX009 (ip), vehicle: water
[10] = dose: 100.0 mg/kg/injection, schedule: Q01DX009 (ip), vehicle: saline
[11] = dose: 25.0 mg/kg/injection, schedule: Q01DX009 (ip), vehicle: saline with Tween-80

For CN(CO)c1nc(N(C)CO)nc(N(C)CO)n1, the T/C [1] was 131 % of control, the T/C [2] was 134 and 139 % of control and the survivor count [3] was 10 of 10 (2×). The survivor count (dose: 400.0 mg/kg/injection, schedule: Q01DX009 (ip), vehicle: saline) was 5 of 10.
NCCCN=c1ccc2c3c1c(O)c1c(O)ccc(=O)c1c3[nH]n2CCNCCO was tested, and the survivor count [4] was 10 of 10 and the survivor count [5] was 10 of 10.
In the case of O=CN(SSN(C=O)C1CCCCC1)C1CCCCC1, the survivor count [6] is reported as 9 of 10.
In the case of O=C1c2c(O)ccc(O)c2C(=O)c2c(NCCNCCO)ccc(NCCNCCO)c21, the T/C (dose: 0.5 mg/kg/injection, schedule: Q01DX009 (ip), vehicle: water) is reported as 125 % of control, the survivor count (dose: 0.5 mg/kg/injection, schedule: Q03HX024 (ip), vehicle: acid diluted with saline) is reported as 7 of 10 and the T/C (dose: 1.0 mg/kg/injection, schedule: Q01DX009 (sc), vehicle: acid diluted with saline) is reported as 131 % of control. The survivor count (dose: 1.0 mg/kg/injection, schedule: Q03HX024 (ip), vehicle: acid diluted with saline) was 9 of 10, the T/C [7] was 117 and 337 % of control and the survivor count [7] was 10 of 10. For the same compound, the survivor count (dose: 2.0 mg/kg/injection, schedule: Q01DX009 (sc), vehicle: acid diluted with saline) was 10 of 10, the survivor count (dose: 2.0 mg/kg/injection, schedule: Q03HX024 (ip), vehicle: acid diluted with saline) was 6 of 10 and the survivor count (dose: 2.5 mg/kg/injection, schedule: Q01DX009 (ip), vehicle: water) was 10 of 10. For the same compound, the survivor count (dose: 4.0 mg/kg/injection, schedule: Q01DX005 (ip), vehicle: saline) was 10 of 10, the survivor count (dose: 4.0 mg/kg/injection, schedule: Q01DX005 (iv), vehicle: acid diluted with saline) was 10 of 10 and the survivor count (dose: 4.0 mg/kg/injection, schedule: Q01DX005 (iv), vehicle: saline) was 9 of 10. For the same compound, the survivor count (dose: 4.0 mg/kg/injection, schedule: Q01DX009 (ip), vehicle: acid diluted with saline) was 10 of 10, the survivor count (dose: 4.0 mg/kg/injection, schedule: Q01DX009 (ip), vehicle: other) was 10 of 10 and the survivor count [8] was 10 of 10 (2×). The survivor count (dose: 4.0 mg/kg/injection, schedule: Q01DX009 (sc), vehicle: acid diluted with saline) was 10 of 10, the survivor count (dose: 4.0 mg/kg/injection, schedule: Q03HX008 (ip), vehicle: acid diluted with saline) was 0 of 10 and the survivor count (dose: 5.0 mg/kg/injection, schedule: Q01DX009 (ip), vehicle: water) was 7 of 10 and 10 of 10. For the same compound, the survivor count [9] was 10 of 10, the survivor count (dose: 8.0 mg/kg/injection, schedule: Q01DX009 (oral), vehicle: acid diluted with saline) was 8 of 10 and the survivor count (dose: 10.0 mg/kg/injection, schedule: Q01DX009 (ip), vehicle: water) was 8 of 10. For the same compound, the survivor count (dose: 16.0 mg/kg/injection, schedule: Q01DX001 (iv), vehicle: acid diluted with saline) was 10 of 10, the survivor count [4] was 10 of 10 and the survivor count (dose: 16.0 mg/kg/injection, schedule: Q01DX009 (oral), vehicle: acid diluted with saline) was 8 of 10. For the same compound, the survivor count (dose: 16.0 mg/kg/injection, schedule: Q04DX003 (ip), vehicle: acid diluted with saline) was 10 of 10, the survivor count (dose: 18.0 mg/kg/injection, schedule: Q01DX001 (ip), vehicle: acid diluted with saline) was 10 of 10 and the survivor count (dose: 32.0 mg/kg/injection, schedule: Q01DX001 (ip), vehicle: acid diluted with saline) was 6 of 10. The survivor count (dose: 32.0 mg/kg/injection, schedule: Q01DX001 (iv), vehicle: acid diluted with saline) was 6 of 10, the survivor count [5] was 6 of 10 and the survivor count (dose: 32.0 mg/kg/injection, schedule: Q01DX009 (oral), vehicle: acid diluted with saline) was 10 of 10. For the same compound, the survivor count (dose: 36.0 mg/kg/injection, schedule: Q01DX001 (ip), vehicle: acid diluted with saline) was 3 of 10 and 10 of 10, the survivor count (dose: 64.0 mg/kg/injection, schedule: Q01DX001 (ip), vehicle: acid diluted with saline) was 4 of 10 and the survivor count (dose: 64.0 mg/kg/injection, schedule: Q01DX009 (ip), vehicle: water) was 2 of 10. For the same compound, the survivor count (dose: 72.0 mg/kg/injection, schedule: Q01DX001 (ip), vehicle: acid diluted with saline) was 1 of 10 and 10 of 10.
With Oc1ccc2ccccc2c1N=Nc1ccc(Cl)cc1 the survivor count [6] was 10 of 10.
For CC(C)(O)/C=C/C(=O)[C@](C)(O)[C@H]1[C@H](O)C[C@@]2(C)[C@@H]3CC=C4[C@@H](C[C@H](O)C(=O)C4(C)C)[C@]3(C)C(=O)C[C@]12C, the survivor count (dose: 2.0 mg/kg/injection, schedule: Q01DX009 (ip), vehicle: saline + Tween-80 + alcohol) was 3 of 10.
With CC(=O)OCC1OC(n2cc(CBr)nn2)C(OC(C)=O)C(OC(C)=O)C1OC(C)=O (stereo not drawn) the T/C [10] was 134 % of control and the survivor count [3] was 7 of 10.
For O=C(O)CC1C(=O)OC2C3COC(=O)c4cc(O)c(O)c(O)c4-c4c(cc(O)c(O)c4O)C(=O)OC2C(OC(=O)c2cc(O)c(O)c4c2C1C(O)C(=O)O4)C(OC(=O)c1cc(O)c(O)c(O)c1)O3 (stereo not drawn), the survivor count (dose: 3.12 mg/kg/injection, schedule: Q01DX009 (ip), vehicle: saline) was 10 of 10.
In the case of Cn1c(N)c(N=Nc2ccccc2Cl)c(=O)n(C)c1=O, the T/C [11] is reported as 125 % of control.
CCCCCCCCCCCCCCCC[N+]1(C)CCN(SN2CC[N+](C)(CCCCCCCCCCCCCCCC)CC2)CC1 was tested, and the survivor count [11] was 10 of 10, the survivor count [2] was 5 of 10 and the survivor count (dose: 100.0 mg/kg/injection, schedule: Q01DX009 (ip), vehicle: saline with Tween-80) was 10 of 10.
In the case of COc1cc2c(oc(=O)c3cc(C)cc(OC)c32)c2c(C3OC(C)C(O)C(C)(O)C3O)ccc(O)c12 (stereo not drawn), the survivor count (dose: 1.5 mg/kg/injection, schedule: Q01DX009 (ip), vehicle: DMSO) is reported as 10 of 10, the T/C (dose: 1.57 mg/kg/injection, schedule: Q01DX009 (ip), vehicle: DMSO) is reported as 128 % of control and the survivor count (dose: 3.0 mg/kg/injection, schedule: Q01DX009 (ip), vehicle: DMSO) is reported as 7 of 9. The T/C (dose: 3.13 mg/kg/injection, schedule: Q01DX009 (ip), vehicle: DMSO) was 125 % of control, the T/C (dose: 12.5 mg/kg/injection, schedule: Q01DX009 (ip), vehicle: DMSO) was 135 and 144 % of control and the T/C (dose: 25.0 mg/kg/injection, schedule: Q01DX009 (ip), vehicle: DMSO) was 110, 123 [8 of 10 alive], 135, 169 % of control.
With Cc1cc(NCCCN(C)C)c2ccc3c(ccc4c(NCCCN(C)C)cc(C)nc43)c2n1 the survivor count (dose: 6.25 mg/kg/injection, schedule: Q01DX009 (ip), vehicle: saline) was 5 of 10 and 9 of 10, the survivor count (dose: 12.5 mg/kg/injection, schedule: Q01DX009 (ip), vehicle: saline) was 0 of 10 and the survivor count [1] was 0 of 10. The survivor count [2] was 0 of 10 and the survivor count [10] was 0 of 10.
For CC[C@@]1(O)C[C@H](OC2CC(N(C)C)C(OC3CC(O)C(OC4CCC(=O)C(C)O4)C(C)O3)C(C)O2)c2c(cc3c(c2O)C(=O)c2c(O)ccc(O)c2C3=O)[C@H]1C(=O)OC (stereo partly drawn), the survivor count [7] was 10 of 10, the survivor count [8] was 10 of 10 and the survivor count [9] was 1 of 10.
In the case of NC(CO)(CO)CO, the survivor count (dose: 3200.0 mg/kg/injection, schedule: Q01DX009 (ip), vehicle: saline) is reported as 6 of 10 and the survivor count (dose: 3200.0 mg/kg/injection, schedule: Q12HX018 (ip), vehicle: saline) is reported as 2 of 10.
In the case of Cc1ccc(C(=O)OC(C(=O)O)C(OC(=O)c2ccc(C)cc2)C(=O)O)cc1 (stereo not drawn) (tested in a mixture with another compound), the survivor count (dose: 50.0 mg/kg/injection, schedule: Q01DX009 (ip), vehicle: other) is reported as 4 of 8 and the survivor count (dose: 100.0 mg/kg/injection, schedule: Q01DX009 (ip), vehicle: other) is reported as 0 of 8.
